# Experimental data taken from the supplement of paper PMC6411743.
# ± gives the standard deviation of the averaged measurements. The list shows a part of the results.
# Molecular target: T1, UniProt O75934
# T1 sequence (whole entry): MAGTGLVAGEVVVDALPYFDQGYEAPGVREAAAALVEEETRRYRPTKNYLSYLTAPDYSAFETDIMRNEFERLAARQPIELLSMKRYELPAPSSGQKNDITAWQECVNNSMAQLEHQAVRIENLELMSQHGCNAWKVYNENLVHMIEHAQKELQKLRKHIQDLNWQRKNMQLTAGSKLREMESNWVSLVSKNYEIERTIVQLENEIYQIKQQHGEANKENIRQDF
# Assay: NP40-soluble protein abundance relative to vehicle (solubility fold change) (ratio); higher = more soluble protein in presence of GTP
# Procedure: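 Solubility proteome profiling in Jurkat crude lysate. Lysate was treated with Mg-GTP (0.1-10 mM) for 10 min at room temperature and 3 min at 37 °C, then solubilised with 0.8% NP40 and benzonase, followed by ultracentrifugation. Proteins were quantified by TMT10 LC-MS/MS; the value is the NP40-soluble abundance relative to the NP40-processed vehicle, from 3 independent experiments.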
compound,measurement,setting,value
Nc1nc2c(ncn2[C@@H]2O[C@H](COP(=O)(O)OP(=O)(O)OP(=O)(O)O)[C@@H](O)[C@H]2O)c(=O)[nH]1 [guanosine triphosphate],NP40-soluble protein abundance,concentration: 0.1mM,0.955 ± 0.048
same,NP40-soluble protein abundance,concentration: 0.5mM,0.97 ± 0.034
same,NP40-soluble protein abundance,concentration: 1mM,1.04 ± 0.071
same,NP40-soluble protein abundance,concentration: 2mM,1.15 ± 0.019
same,NP40-soluble protein abundance,concentration: 4mM,1.12 ± 0.051
same,NP40-soluble protein abundance,concentration: 6mM,1.168 ± 0.0088
same,NP40-soluble protein abundance,concentration: 8mM,1.14 ± 0.05
same,NP40-soluble protein abundance,concentration: 10mM,1.35 ± 0.15
